Common to all, as to assay: EMSA
On the technique in general: Mobility shift assays separate free from complexed probe on a gel.

The subject of data set [1] is MBP-LjNLP4 (564-976) (Lotus japonicus). The following applies: EMSA: 0.25 µM FAM-DNA, 50 ng/µL poly(dI-dC), 10 mM Tris-HCl pH 7.5, 100 mM KCl, 100 mM NaCl, 1 mM DTT, 2.5% glycerol, 5 mM MgCl2, 25 °C 30 min, 10% polyacrylamide gel, recombinant protein, protein details: MBP, label: FAM.
For data set [2], the target named is T1, MBP-LjNIN (551-878) (Lotus japonicus) (UniProt Q9S7B1).
T1 sequence (looked up): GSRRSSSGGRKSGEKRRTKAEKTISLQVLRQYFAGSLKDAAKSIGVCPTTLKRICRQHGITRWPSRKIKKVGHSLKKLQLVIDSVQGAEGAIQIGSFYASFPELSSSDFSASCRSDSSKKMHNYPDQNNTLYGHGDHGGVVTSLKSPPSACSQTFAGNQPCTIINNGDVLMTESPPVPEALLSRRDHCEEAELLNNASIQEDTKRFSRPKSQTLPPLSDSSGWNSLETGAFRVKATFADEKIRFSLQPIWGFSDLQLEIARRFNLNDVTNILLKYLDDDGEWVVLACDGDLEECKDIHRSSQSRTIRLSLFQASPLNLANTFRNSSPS
The following applies: EMSA: 0.25 µM FAM-DNA, 50 ng/µL poly(dI-dC), 10 mM Tris-HCl pH 7.5, 100 mM KCl, 100 mM NaCl, 1 mM DTT, 2.5% glycerol, 5 mM MgCl2, 25 °C 30 min, 10% polyacrylamide gel, recombinant protein, residues 551-878, protein details: MBP, label: FAM.

The test system of data set [3] is MBP-LjNLP1 (573-903) (Lotus japonicus). The note with it: EMSA: 0.25 µM FAM-DNA, 50 ng/µL poly(dI-dC), 10 mM Tris-HCl pH 7.5, 100 mM KCl, 100 mM NaCl, 1 mM DTT, 2.5% glycerol, 5 mM MgCl2, 25 °C 30 min, 10% polyacrylamide gel, recombinant protein, protein details: MBP, label: FAM.

For at least one entry, the source does not settle the construct or the ends of the probe. For part of these data: The comparison behind a weaker result is the experiment's own reference, which may not be listed here. At least one verdict was read from the data and is not stated in words by the source. For part of these data: Protein sequences can lack the tags named with them.

With “CTTCTTCCCCTTTACTCTATTTGAAAAGTCATGATGGT (double strand) [NBS/NRE (LjIMA1pro)]”, the binding result was “binds more weakly” in data set [1] (less binding than LjNIN), “binds” in data set [2] and “binds more weakly” in data set [3] (less binding than LjNIN).
In the case of “CAAACACGACCCTTTGTCACAACCAAAGGTCCATTGTA (double strand) [NRE (LjNIR1pro)]”, the binding result in data set [1] (positive control), in data set [2] (positive control) and in data set [3] (positive control) was “binds” in each case.

(Values after paper PMC10825120.)
